# Results reported in PubChem BioAssay AID2284360 (EPA ToxCast).
# Inconclusive means that the source gave no clear call. Such entries were picked first, then a sample of the others. Potencies beside an inconclusive call are fits to weak or partial responses and may not hold up. The source made the active and inactive calls. Rule for the calls: active = hit-call score of the fitted dose curve at least 0.9, where 1 is the maximum; inconclusive = response in the unintended direction; inactive = score below 0.9.
# Experiment: ATG_M_19_EcoTox2: Attagene TRANS-FACTORIAL EcoTox-2 HepG2 Assay for M19 Transcription Factor (Internal Marker)
# Method: ATG_EcoTox2 is a cell-based, multiplexed assay created by modifying the existing Attagene TRANS-FACTORIAL system to include a panel of nuclear receptors from some or all the following species: human (Homo sapiens), african clawed frog (Xenopus laevis), rainbow trout (Oncorhynchus mykiss), japanese medaka (Oryzias latipes), and zebrafish (Danio rerio). The ECOTOX2-FACTORIAL format uses HepG2, a human liver cell line, with measurements taken at 24 hours after chemical dosing in a 24-well plate. ATG_M_19_EcoTox2 is one of 29 assay components calculated in the ATG_EcoTox2 assay. It is designed to make measurements of mRNA induction, a form of inducible reporter, as detected with fluorescence intensity signals by Reverse transcription polymerase chain reaction (RT-PCR) and Capillary electrophoresis technology.The assay endpoint ATG_M_19_EcoTox2 was analyzed in the positive analysis fitting direction relative to DMSO as the negative control and baseline of activity. Using a type of inducible reporter, measures of mRNA for gain-of-signal activity can be used to understand the background control at the transcription factor-level as they relate to the gene. Furthermore, this assay endpoint can be referred to as a secondary readout, because this assay has produced multiple assay endpoints where this one serves a background control function. To generalize the intended target to other relatable targets, this assay endpoint is annotated to the background measurement intended target family, where the subfamily is internal marker.
# Human liver HepG2 cells are transiently transfected with multiple reporter transcription units (MRTUs) in 6-well plates using FuGene 6 reagent (Roche; 3 ml FuGene/1 mg DNA). The MRTU constructs are regulated by a cis-regulating element (promoter). Each RTU expresses a GAL4-UAS that regulates the transcription of a nearby target reporter gene sequence. A major difference between the CIS and TRANS system is that in CIS activities of endogenous TFs are measured, whereas the TRANS assay evaluates changes in activities of exogenous, chimeric NR-Gal4 proteins. […] At the end of 24 hour incubation, total RNA was isolated using TriZol reagent (Invitrogen). The isolated RNA is then reverse-transcribed using oligo(dT) primer and Mo-MLV reverse transcriptase (Invitrogen) with DNAse I (Ambion) treatment for 30 min. The one-tenth of the produced cDNA was amplified by PCR using Taq DNA polymerase (Invitrogen) and two reporter sequence-specific primers. The PCR products were fluorescently labeled by primer extension with 6-arboxyfluorescein (6-FAM) 5'-labeled reporter sequence-specific primer (2 min at 95 C, 20 s at 68 C and 10 min at 72 C) and these products were digested with 5U of HpaI (New England Biolabs) for 2h at 37 C. The fragments were purified using Qiaquick PCR columns (Qiagen), analyzed on an ABI 3130xL genetic analyzer (Applied Biosystems) with peak positions identified by using a set of X-rhodamine (ROX)-labeled MapMarker1000 molecular weight standards (BioVentures). The raw capillary electrophoresis data was processed using Attagraph software (Attagene).
SMILES,AC50,outcome
O=C(O)C(F)(F)C(F)(F)C(F)(F)C(F)(F)C(F)(F)C(F)(F)C(F)(F)F,inconclusive: 0.0164 µM,
O=P(Oc1ccccc1)(Oc1ccccc1)Oc1ccccc1,inconclusive: 50 µM,
O=S(=O)(O)C(F)(F)C(F)(F)C(F)(F)C(F)(F)C(F)(F)C(F)(F)F,,inactive
CCCCOCN(C(=O)CCl)c1c(CC)cccc1CC,,inactive
[Cl][Sn]([c]1ccccc1)([c]1ccccc1)[c]1ccccc1,,inactive
